Measured values published in publication PMC9250505.
No constants are given. Whether binding was seen depends on the method and setting. Binding seen in cells or lysates may run through a third protein. Some binding calls cover weakened binding; strength is not graded here.

Target: T1, BCL2-associated death promoter (BAD) protein (human) (UniProt Q92934)
T1 sequence: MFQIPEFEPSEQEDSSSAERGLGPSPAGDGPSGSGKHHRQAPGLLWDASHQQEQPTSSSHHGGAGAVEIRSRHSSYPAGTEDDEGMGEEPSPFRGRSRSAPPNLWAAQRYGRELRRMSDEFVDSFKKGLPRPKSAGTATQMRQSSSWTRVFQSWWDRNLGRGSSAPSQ
Experiment: co-IP; CAOV-2 cells treated with NPB; which protein was precipitated is not stated in the main text

B1: BCL-W (protein, UniProt Q92843 1-193)
chain: MATPASAPDTRALVADFVGYKLRQKGYVCGAGPGEGPAADPLHQAMRAAGDEFETRFRRTFSDLAAQLHVTPGSAQQRFTQVSDELFQGGPNWGRLVAFFVFGAALCAESVNKEMEPLVGQVQEWMVAYLETQLADWIHSSGGWAEFTALYGDGALEEARRLREGNWASVRTVLTGAVALGALVTVGAFFASK
- binding: binds
